Measurements reported in PubChem BioAssay AID652259 (Drosophila RNAi Screening Center, 2013).

Assay: 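Genome-wide hunt for genes that control Wingless pathway activity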 (primary screen)
System: Drosophila clone 8 imaginal disc epithelial cells
Reagent: long dsRNA against Drosophila genes
Challenge: pathway stimulated by co-transfected Wingless expression plasmid
Detection: 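Dual luciferase reads per well after Wingless plasmid stimulation: reporter firefly light and Renilla control light; activity is firefly divided by Renilla, a ratio not deposited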
Direction: firefly reporter light: higher = more Wg reporter light, before normalisation; Renilla control light: higher = more transfected or surviving cells
Hit rule: 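Strong candidates differ from their plate mean by at least two out of four per-plate statistical tests; weak candidates meet just one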
Calls: active = candidate regulator (raises or lowers reporter); inactive = not a candidate
In all, the deposit lists about 22,000 reagents; shown is an unselected part of those with a known target gene and a result. Over the whole deposit, 233 (1.1%) got an active call. 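Light values are raw, unnormalised plate reads; the ratio scores behind the reporter calls were not deposited.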 A plus sign joins genes that one reagent is predicted to hit. Reagent sequences are not shown. The record does not give: the amount of reagent, the time to read-out, the dose of the treatment.

Depletion of CR12842 [DRSC06188] came out at: firefly reporter light, replicate 1 = 3378; firefly reporter light, replicate 2 = 4448; Renilla control light, replicate 1 = 752; Renilla control light, replicate 2 = 2183; inactive. With knock-down of CG13707 [DRSC08316] the results were firefly reporter light, replicate 1 = 1570; firefly reporter light, replicate 2 = 10826; Renilla control light, replicate 1 = 861; Renilla control light, replicate 2 = 3339; inactive. For TfIIFbeta [DRSC16884] the deposit lists firefly reporter light, replicate 1 = 21547; Renilla control light, replicate 1 = 5984; inactive. Depletion of TfIIFbeta [DRSC21447] gave: firefly reporter light, replicate 1 = 3.10e5; firefly reporter light, replicate 2 = 3.60e5; Renilla control light, replicate 1 = 1.17e5; Renilla control light, replicate 2 = 89516; inactive. gig [DRSC11351] scored firefly reporter light, replicate 1 = 3899; Renilla control light, replicate 1 = 2135; inactive. Against CG42264 [DRSC18074] the deposit lists firefly reporter light, replicate 1 = 19781; Renilla control light, replicate 1 = 9481; inactive.

CG42264 [DRSC18075] showed firefly reporter light, replicate 1 = 18026; Renilla control light, replicate 1 = 10468; inactive. With knock-down of CG30060 [DRSC05419], the screen gave firefly reporter light, replicate 1 = 13602; Renilla control light, replicate 1 = 11202; inactive. Against CG32808 [DRSC17689], the values are firefly reporter light, replicate 1 = 4299; Renilla control light, replicate 1 = 1698; inactive. Knock-down of CG43777 + CG43776 + CG43775 [DRSC04206] gave: firefly reporter light, replicate 1 = 2497; firefly reporter light, replicate 2 = 5050; Renilla control light, replicate 1 = 417; Renilla control light, replicate 2 = 2252; inactive. With knock-down of spidey [DRSC17932] the results were firefly reporter light, replicate 1 = 20224; Renilla control light, replicate 1 = 9536; inactive. For CG4408 [DRSC15574], the values are firefly reporter light, replicate 1 = 2064; firefly reporter light, replicate 2 = 4667; Renilla control light, replicate 1 = 1060; Renilla control light, replicate 2 = 1704; inactive.

Quoted from the listing (2 entries):
gig [DRSC11351] — firefly reporter light, replicate 1 = 3899; Renilla control light, replicate 1 = 2135; activity call = inactive
CG42264 [DRSC18074] — firefly reporter light, replicate 1 = 19781; Renilla control light, replicate 1 = 9481; activity call = inactive

The results go on.
For CG9265 [DRSC03178], the entry reads firefly reporter light, replicate 1 = 2560; firefly reporter light, replicate 2 = 7233; Renilla control light, replicate 1 = 946; Renilla control light, replicate 2 = 2773; inactive. With knock-down of CG9265 [DRSC03179] the results were firefly reporter light, replicate 1 = 3584; firefly reporter light, replicate 2 = 7072; Renilla control light, replicate 1 = 1009; Renilla control light, replicate 2 = 2589; inactive. RagC-D [DRSC07239] scored firefly reporter light, replicate 1 = 15720; Renilla control light, replicate 1 = 4853; inactive. Against Aldh [DRSC02717], the entry reads firefly reporter light, replicate 1 = 1478; firefly reporter light, replicate 2 = 5418; Renilla control light, replicate 1 = 963; Renilla control light, replicate 2 = 2939; inactive. Depletion of Rubicon [DRSC17889] gave: firefly reporter light, replicate 1 = 16344; Renilla control light, replicate 1 = 7369; inactive. Silencing of dap [DRSC07601] resulted in: firefly reporter light, replicate 1 = 10690; Renilla control light, replicate 1 = 2793; inactive.

Knock-down of TH1 [DRSC20289] came out at: firefly reporter light, replicate 1 = 1904; firefly reporter light, replicate 2 = 8892; Renilla control light, replicate 1 = 841; Renilla control light, replicate 2 = 1800; inactive. CG7872 [DRSC20062] scored firefly reporter light, replicate 1 = 2993; firefly reporter light, replicate 2 = 8019; Renilla control light, replicate 1 = 996; Renilla control light, replicate 2 = 2465; inactive. Against bon [DRSC16914], the entry reads reporter change call, replicate 1 = Wg reporter activity raised; firefly reporter light, replicate 1 = 60055; Renilla control light, replicate 1 = 4112; active. After knock-down of Got2 [DRSC00643], the screen gave firefly reporter light, replicate 1 = 8092; Renilla control light, replicate 1 = 4240; inactive. Against pyr [DRSC06319], the entry reads firefly reporter light, replicate 1 = 8850; Renilla control light, replicate 1 = 3164; inactive. After knock-down of pyr [DRSC22520], the record shows firefly reporter light, replicate 1 = 8.79e5; firefly reporter light, replicate 2 = 9.46e5; Renilla control light, replicate 1 = 4.24e5; Renilla control light, replicate 2 = 4.37e5; inactive.

fipi [DRSC00465] gave firefly reporter light, replicate 1 = 4272; firefly reporter light, replicate 2 = 9264; Renilla control light, replicate 1 = 696; Renilla control light, replicate 2 = 1827; inactive.
